Test results as given in patent publication US7029878B2, “Melanin concentrating hormone receptor chimeric and fusion proteins” (Merck & Co., Inc., priority 2000, dated 2006).

System: CHO cell lines
Assay: subcellular localization by confocal microscopy (EGFP fluorescence), stable cell lines
Assay type: cell-based

Substance | subcellular localization (EGFP fluorescence)
human short/mouse species chimeric MCH-1R-EGFP: human short form/mouse species chimeric MCH1R-linker-EGFP, SEQ. ID. NO. 13 | primarily associated with the plasma membrane
mouse MCH-1R-EGFP: mouse MCH1R fused via 12 amino acid linker to EGFP, SEQ. ID. NO. 11 | primarily associated with the plasma membrane
